# Data reported in US20120130060A1, “Modified antisense oligopeptides with anticancer properties and method of obtaining them” (priority 2010, published 2012).
# Experiment: ED50 and therapeutic index, comparative characteristics of Anticanum and Taxotere
# Format: in vivo
structure (smiles),measurement,setting,value
CC(=O)O[C@@]12CO[C@@H]1C[C@H](O)[C@@]1(C)C(=O)[C@H](O)C3=C(C)[C@@H](OC(=O)[C@H](O)[C@@H](NC(=O)OC(C)(C)C)c4ccccc4)C[C@@](O)([C@@H](OC(=O)c4ccccc4)[C@H]21)C3(C)C [Taxotere],Therapeutic Index,LD50 rats i.v. / ED50,3.42
same,Relative Therapeutic Index,relative to Taxotere,1
